In paper PMC12175362 one finds binding data, which are given here for 1 substance.

By UniProt entry, the sequences of proteins in these tests, tags left out.
UniProt P06733: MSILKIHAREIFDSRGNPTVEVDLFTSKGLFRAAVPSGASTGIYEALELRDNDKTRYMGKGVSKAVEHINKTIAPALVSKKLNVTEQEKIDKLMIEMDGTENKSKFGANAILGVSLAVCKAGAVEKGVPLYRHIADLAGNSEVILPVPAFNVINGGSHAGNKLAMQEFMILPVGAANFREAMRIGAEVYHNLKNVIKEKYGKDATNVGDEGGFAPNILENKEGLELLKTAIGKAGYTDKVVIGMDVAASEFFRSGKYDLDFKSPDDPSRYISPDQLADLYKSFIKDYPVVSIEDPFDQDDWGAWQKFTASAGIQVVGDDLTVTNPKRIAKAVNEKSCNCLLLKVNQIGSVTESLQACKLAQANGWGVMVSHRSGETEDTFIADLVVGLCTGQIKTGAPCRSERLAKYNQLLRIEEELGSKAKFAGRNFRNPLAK

The assay concerns the target T1, Doublecortin domain containing 2 (DCDC2) (human (endogenous in ICC tissue)) (UniProt Q9UHG0).
T1 sequence: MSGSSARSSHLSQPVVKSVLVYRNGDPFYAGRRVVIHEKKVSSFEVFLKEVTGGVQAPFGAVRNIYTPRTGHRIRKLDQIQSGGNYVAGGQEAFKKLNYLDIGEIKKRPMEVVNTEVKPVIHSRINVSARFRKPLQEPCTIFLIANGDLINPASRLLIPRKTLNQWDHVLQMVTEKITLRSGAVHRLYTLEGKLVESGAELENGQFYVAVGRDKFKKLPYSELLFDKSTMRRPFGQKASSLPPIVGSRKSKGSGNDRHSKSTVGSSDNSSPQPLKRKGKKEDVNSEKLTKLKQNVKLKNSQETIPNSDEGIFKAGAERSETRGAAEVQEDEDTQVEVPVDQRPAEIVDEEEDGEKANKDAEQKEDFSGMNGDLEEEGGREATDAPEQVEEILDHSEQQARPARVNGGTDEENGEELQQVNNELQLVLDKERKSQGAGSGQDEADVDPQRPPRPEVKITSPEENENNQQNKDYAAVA
The assay can be described thus: affinity purification with mass spectrometry; Co-IP with anti-DCDC2 antibody from ICC tissues; specific band of a silver-stained gel analysed by MS.

Results are given in words; binding and its absence hold for the method and conditions named. Binding seen in cells or lysates may run through a third protein. A yes stands for co-enrichment or nearness to the bait. Other partners may have been found.

Turning to “Enolase 1 (ENO1) (from UniProt P06733 1-434)”, the binding result is recorded as “binds”.
